PubChem BioAssay AID240 (DTP/NCI, 2004)
The list does not hold the whole screen: its compounds were picked by chemical class. Not every dose and run of a compound is shown. T/C is the treated group as % of the vehicle group. Where survival is the endpoint, this PubChem deposit counts one and a half times the control or more as active, and values a quarter to a half above the control carry no call in these data; other NCI protocols may use other cut-offs. Some entries show no survivor count and are marked so; the dose need not have been tolerated. Schedule codes are those of the source, read here as Q, the interval in days (D) or hours (H), X, the number of doses. Some entries hold several experiments; their values stand side by side, smallest first.

Tested on: Lymphoma 4 ip in BDF1 mice, median survival
Experiment: NCI In Vivo Anticancer Drug Screen. Data for tumor model Lymphoma 4 (intraperitoneal) in B6D2F1 (BDF1) mice
Settings: T/C endpoint: median survival time, schedule: Q01DX010 (ip), vehicle: saline, higher T/C = longer survival
Experimental: The antitumor activity of compounds was measured in mice bearing transplantable tumors. Survival or tumor size were measured and the results are expressed as the measurement made in the treated group (T) divided by the measurement made in the vehicle treated control group (C). The tumor model used in this assay is Lymphoma 4 (intraperitoneal) in B6D2F1 (BDF1) mice

In the case of `CN(CCCl)CCCl`, the T/C (dose: 0.13 mg/kg/injection) is reported as 129 [survivor count not shown] and 130 % of control [survivor count not shown] and the T/C (dose: 0.25 mg/kg/injection) is reported as 135 [survivor count not shown] and 160 % of control [survivor count not shown].
